This is one part of the list. Values are raw readings; no control value is given beside them.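 Primary screen: polymyxin B was added at a level permeabilizing Salmonella outer membranes while sparing inner membranes. DMSO wells, both with and without polymyxin B, established maximum growth. Plate-to-plate variation meant each plate was ranked on its own, and the lowest-OD600 compounds were selected as hits.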
Tested on: Salmonella enterica serovar Typhimurium SL1344
Assay: bacterial growth OD600 after 18 h with compound and polymyxin B; higher = more bacterial growth (less inhibition)
Settings: 50 µM, Mueller-Hinton broth

## CC(C)c1nccn1Cc1cc(C(=O)NCc2cc(C(C)(C)C)[nH]n2)n[nH]1
Polymyxin B 1 µg/mL
  bacterial growth OD600: 1.01

## Cc1noc(C)c1C(=O)NC1CC(=O)N(Cc2cccc(F)c2)C1 (stereo not given)
Polymyxin B 1 µg/mL
  bacterial growth OD600: 0.939

## O=C(CCCc1ccccc1)Nc1cccc(N2CCC(NC3CCOC3)CC2)c1 (stereo not given)
Polymyxin B 0.75 µg/mL
  bacterial growth OD600: 0.867

## O=C(NCC(c1ccc(F)cc1)N1CCCC1)c1ccc2nc(C3CC3)oc2c1 (stereo not given)
Polymyxin B 1 µg/mL
  bacterial growth OD600: 0.815

## Cc1ccccc1CN1C[C@@H]2C[C@@H](c3cc(CC(C)C)[nH]n3)N3CCC[C@@]23C1=O
Polymyxin B 1 µg/mL
  bacterial growth OD600: -0.002

## CN(C(=O)c1ccn(C)n1)C(Cc1ccccc1)C1CCN(C(=O)Cc2ccccc2F)CC1 (stereo not given)
Polymyxin B 0.75 µg/mL
  bacterial growth OD600: 0.878

## Cc1cccc(CNC(=O)C2CC23CCN(C(=O)CSc2ccccc2)CC3)n1 (stereo not given)
Polymyxin B 0.75 µg/mL
  bacterial growth OD600: 0.899

## COc1ccccc1CN1C(=O)O[C@@H]2CN(Cc3nccn3C)C[C@@H]21
Polymyxin B 0.75 µg/mL
  bacterial growth OD600: 0.82

## COCc1c(C(=O)N2CCN(C3CCCC3)CC2)cnn1-c1ncc2c(n1)-c1ccccc1CC2
Polymyxin B 0.75 µg/mL
  bacterial growth OD600: 0.802

## COc1ccc(NC(=O)CCC2CCCN(CCCC(F)(F)F)C2)c(C)c1 (stereo not given)
Polymyxin B 1 µg/mL
  bacterial growth OD600: 0.934

## C=C(C)CN(CC)C(=O)c1cc(OC)ccc1OC1CCN(C2CCCC2)CC1
Polymyxin B 1 µg/mL
  bacterial growth OD600: 1.31

## COc1ccc(C2CCN(Cc3ccc(Sc4nncn4C)o3)c3ccccc3S2)cc1C (stereo not given)
Polymyxin B 0.75 µg/mL
  bacterial growth OD600: -0.001

## O=C(CSc1ccc2nnc(-c3cccnc3)n2n1)NCCCn1ncc2ccccc21
Polymyxin B 0.75 µg/mL
  bacterial growth OD600: 0.798

## C=CCCC(=O)N(C)CC1CCCN(CCc2ccccc2OC)C1 (stereo not given)
Polymyxin B 1 µg/mL
  bacterial growth OD600: 0.79

## CCCCNc1ccc(C(=O)N2CCC(Oc3cccnc3)CC2)cn1
Polymyxin B 0.75 µg/mL
  bacterial growth OD600: 0.797

## O=C(COc1ccccc1)Nc1ccc(N2CCC(NC3C4CC5CC(C4)CC3C5)CC2)cc1 (stereo not given)
Polymyxin B 0.75 µg/mL
  bacterial growth OD600: 0.921

## CN(C)c1ccc(C(=O)N2CCCCC2CCn2cccn2)cn1 (stereo not given)
Polymyxin B 1 µg/mL
  bacterial growth OD600: 0.944

## COc1cccc(-c2nc3ccc(C(=O)NC(C)Cc4cccnc4)cc3o2)c1 (stereo not given)
Polymyxin B 1 µg/mL
  bacterial growth OD600: 0.865

## Cc1ccccc1CCC1CCCN(C(=O)c2ccoc2)C1 (stereo not given)
Polymyxin B 0.75 µg/mL
  bacterial growth OD600: 0.161

## Cc1ncc2c(c1CNC(=O)/C=C/c1ccccc1F)CCN(C(=O)CCOc1ccccc1)C2
Polymyxin B 0.75 µg/mL
  bacterial growth OD600: 0.006
